# Library screen at single concentrations

Results are given as percent effect.
How 0% and 100% were set is not recorded. Most values in the screen are low, and negative values occur.
This is an unselected part of the compounds tested.

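Assay of Toxoplasma gondii numbers, read through their beta-galactosidase reporter with a colour substrate. Tested at 50 µM. The record gives no direction; the compounds picked for IC50 retests had high values, so higher reads as fewer parasites. Size under these conditions: about 18,000 compounds, about 170 of them at 50% or above in at least one test.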

- CCc1ccc(CN2CCN(C(=O)N(C)C)CC2)o1 : -1.634%
- CC(C)c1ncc(C(=O)N2CCS(=O)(=O)CC2)cn1 : -19.13%
- CC(=O)N1CCC(N)c2ccccc21 (stereo not given) : 19.69%
- O=C1CCN(c2nc3ccccc3o2)CC1 : 4.793%
- CC(C)(C)CNC(=O)Cc1csc(N2CCCC2=O)n1 : -16.24%
- Nc1nnc(SCCC(=O)Nc2ccc(Cl)cn2)s1 : 2.469%
- c1cncc(N2CCC3(CCCN3)C2)c1 (stereo not given) : 3.337%
- CSCC(=O)NCC1(CN2CCOCC2)CCCCC1 : 8.807%
- CNc1cc(C(=O)N2CCCC(NC(C)=O)C2)ccn1 (stereo not given) : 14.43%
- CN(C)c1ccc(NC(=O)NC2CCSCC2)nc1 : -7.609%
- CC(=O)NCCNc1c(C)c(C)nc2ccccc12 : -2.703%
- CSc1nnc(N2CCOCC2)n1Cc1ccccc1 : -12.69%
- CNC(=O)c1cc(-c2ccccc2C)n[nH]1 : -5.545%
- CCS(=O)(=O)CCNC(=O)c1cccc(CN(C)C)c1 : -8.892%
- Cc1csc(N2CCCN(C(=O)c3cnsn3)CC2)n1 : 1.866%
- NC(=O)C1CCN(CCSc2ccccc2)CC1 : -6.194%
- CCCn1ccnc1CN(C)Cc1nc(C)no1 : 3.109%
- CCOCCC(=O)NC(C)Cn1nc(C)cc1C (stereo not given) : -11.1%
- O=C(Cc1cccnc1)NCCn1cc(Cl)cn1 : 2.968%
- NCCc1ccc(Cl)s1 : 19.11%
- CN(C)C(=O)Cn1c(C(F)(F)F)nc2ccccc21 : 2.425%
- c1cn(CCNC2CCSCC2)cn1 : 0.131%
- CC(Cn1cccn1)NC(=O)CCc1ccc(F)cc1 (stereo not given) : -8.276%
- CCCNC(=O)c1ccc(CN2CCOCC2)cc1 : -6.535%
- CNC(C)c1ccco1 (stereo not given) : 4.139%
- Nc1nc(NCCc2cc[nH]n2)cc([C@H]2C[C@@H](N)C2)n1 : -19.83%
- CC(C)(CO)NCc1ccc2c(c1)OCO2 : -16.97%
- Cc1nsc(NC2CCN(C)C2=O)n1 (stereo not given) : 0.4294%
- O=S(=O)(CC1CCOC1)N1CCN(CCO)CC1 (stereo not given) : -0.1594%
- CCNC(=O)CCSc1nnc(-c2ccc(O)cc2)o1 : -13.43%
- COC(=O)NCC(=O)Nc1cc2c(cc1Br)OCCO2 : -2.779%
- COc1cc(CN)c(Br)cc1O : 21%
- Cc1nc(-c2c[nH]c(C(=O)N3CCCC3)c2)cs1 : -5.403%
- O=C(CCc1ccco1)NCC(O)c1ccccc1F (stereo not given) : 2.662%
- CCc1noc(C)c1C(=O)Nc1ccon1 : -10.29%
- O=C(NCCN1CCNCC1)C1CCC1 : -6.987%
- Cc1cnn(CCNCc2cccc3c2OCO3)c1 : 3.617%

For reference, 3 entries once more:

* CCOCCC(=O)NC(C)Cn1nc(C)cc1C (stereo not given) | -11.1%
* CC(C)(CO)NCc1ccc2c(c1)OCO2 | -16.97%
* CC(C)c1ncc(C(=O)N2CCS(=O)(=O)CC2)cn1 | -19.13%

Measurements from “University of Dundee, Small-Polar-MMV Screening Library” (2021), ChEMBL document CHEMBL3988442.